The target of this assay is 3×flag-labeled wild-type ITSN1-S (intersectin1 short isoform) (human) (UniProt Q15811). The assay can be described thus: affinity purification with mass spectrometry; cellular extracts of 3×flag-ITSN1-S cells immunopurified with anti-flag M2 gel (4 h, 4 °C), eluted with flag peptides, SDS-PAGE, silver staining, LC-MS/MS.

Sequences of proteins named here, by UniProt entry; tags and fusion partners are left off. Residues count along the entry.
UniProt Q15811, residues 1-1220: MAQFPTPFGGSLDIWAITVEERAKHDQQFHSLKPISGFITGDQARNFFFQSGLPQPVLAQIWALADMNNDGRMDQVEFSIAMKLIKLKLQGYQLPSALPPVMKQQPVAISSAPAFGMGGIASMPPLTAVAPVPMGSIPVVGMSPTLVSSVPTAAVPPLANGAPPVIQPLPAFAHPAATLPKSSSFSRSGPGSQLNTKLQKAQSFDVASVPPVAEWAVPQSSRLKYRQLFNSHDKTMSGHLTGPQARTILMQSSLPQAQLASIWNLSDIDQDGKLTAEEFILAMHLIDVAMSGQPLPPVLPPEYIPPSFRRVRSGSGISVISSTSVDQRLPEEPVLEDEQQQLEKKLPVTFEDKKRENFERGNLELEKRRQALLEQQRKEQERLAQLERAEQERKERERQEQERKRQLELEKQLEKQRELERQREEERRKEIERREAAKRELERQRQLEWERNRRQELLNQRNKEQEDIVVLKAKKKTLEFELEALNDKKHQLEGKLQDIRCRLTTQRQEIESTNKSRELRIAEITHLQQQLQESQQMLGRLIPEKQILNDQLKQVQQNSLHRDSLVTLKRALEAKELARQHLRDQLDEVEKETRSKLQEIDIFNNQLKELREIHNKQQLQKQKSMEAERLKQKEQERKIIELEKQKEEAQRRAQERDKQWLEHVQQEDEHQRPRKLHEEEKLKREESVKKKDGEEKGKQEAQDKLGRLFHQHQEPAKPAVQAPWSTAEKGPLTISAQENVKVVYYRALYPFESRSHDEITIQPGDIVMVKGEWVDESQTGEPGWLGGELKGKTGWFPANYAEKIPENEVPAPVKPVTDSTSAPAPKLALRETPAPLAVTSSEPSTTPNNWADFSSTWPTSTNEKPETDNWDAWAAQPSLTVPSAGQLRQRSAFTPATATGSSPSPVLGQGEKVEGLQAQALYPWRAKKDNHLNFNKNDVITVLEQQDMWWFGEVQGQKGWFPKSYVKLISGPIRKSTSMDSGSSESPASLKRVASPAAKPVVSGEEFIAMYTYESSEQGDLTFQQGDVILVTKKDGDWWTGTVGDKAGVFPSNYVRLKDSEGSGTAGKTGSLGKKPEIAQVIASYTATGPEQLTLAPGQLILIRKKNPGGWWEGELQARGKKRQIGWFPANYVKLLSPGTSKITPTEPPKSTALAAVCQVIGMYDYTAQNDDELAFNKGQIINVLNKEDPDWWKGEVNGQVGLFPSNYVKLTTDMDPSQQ
UniProt O00443: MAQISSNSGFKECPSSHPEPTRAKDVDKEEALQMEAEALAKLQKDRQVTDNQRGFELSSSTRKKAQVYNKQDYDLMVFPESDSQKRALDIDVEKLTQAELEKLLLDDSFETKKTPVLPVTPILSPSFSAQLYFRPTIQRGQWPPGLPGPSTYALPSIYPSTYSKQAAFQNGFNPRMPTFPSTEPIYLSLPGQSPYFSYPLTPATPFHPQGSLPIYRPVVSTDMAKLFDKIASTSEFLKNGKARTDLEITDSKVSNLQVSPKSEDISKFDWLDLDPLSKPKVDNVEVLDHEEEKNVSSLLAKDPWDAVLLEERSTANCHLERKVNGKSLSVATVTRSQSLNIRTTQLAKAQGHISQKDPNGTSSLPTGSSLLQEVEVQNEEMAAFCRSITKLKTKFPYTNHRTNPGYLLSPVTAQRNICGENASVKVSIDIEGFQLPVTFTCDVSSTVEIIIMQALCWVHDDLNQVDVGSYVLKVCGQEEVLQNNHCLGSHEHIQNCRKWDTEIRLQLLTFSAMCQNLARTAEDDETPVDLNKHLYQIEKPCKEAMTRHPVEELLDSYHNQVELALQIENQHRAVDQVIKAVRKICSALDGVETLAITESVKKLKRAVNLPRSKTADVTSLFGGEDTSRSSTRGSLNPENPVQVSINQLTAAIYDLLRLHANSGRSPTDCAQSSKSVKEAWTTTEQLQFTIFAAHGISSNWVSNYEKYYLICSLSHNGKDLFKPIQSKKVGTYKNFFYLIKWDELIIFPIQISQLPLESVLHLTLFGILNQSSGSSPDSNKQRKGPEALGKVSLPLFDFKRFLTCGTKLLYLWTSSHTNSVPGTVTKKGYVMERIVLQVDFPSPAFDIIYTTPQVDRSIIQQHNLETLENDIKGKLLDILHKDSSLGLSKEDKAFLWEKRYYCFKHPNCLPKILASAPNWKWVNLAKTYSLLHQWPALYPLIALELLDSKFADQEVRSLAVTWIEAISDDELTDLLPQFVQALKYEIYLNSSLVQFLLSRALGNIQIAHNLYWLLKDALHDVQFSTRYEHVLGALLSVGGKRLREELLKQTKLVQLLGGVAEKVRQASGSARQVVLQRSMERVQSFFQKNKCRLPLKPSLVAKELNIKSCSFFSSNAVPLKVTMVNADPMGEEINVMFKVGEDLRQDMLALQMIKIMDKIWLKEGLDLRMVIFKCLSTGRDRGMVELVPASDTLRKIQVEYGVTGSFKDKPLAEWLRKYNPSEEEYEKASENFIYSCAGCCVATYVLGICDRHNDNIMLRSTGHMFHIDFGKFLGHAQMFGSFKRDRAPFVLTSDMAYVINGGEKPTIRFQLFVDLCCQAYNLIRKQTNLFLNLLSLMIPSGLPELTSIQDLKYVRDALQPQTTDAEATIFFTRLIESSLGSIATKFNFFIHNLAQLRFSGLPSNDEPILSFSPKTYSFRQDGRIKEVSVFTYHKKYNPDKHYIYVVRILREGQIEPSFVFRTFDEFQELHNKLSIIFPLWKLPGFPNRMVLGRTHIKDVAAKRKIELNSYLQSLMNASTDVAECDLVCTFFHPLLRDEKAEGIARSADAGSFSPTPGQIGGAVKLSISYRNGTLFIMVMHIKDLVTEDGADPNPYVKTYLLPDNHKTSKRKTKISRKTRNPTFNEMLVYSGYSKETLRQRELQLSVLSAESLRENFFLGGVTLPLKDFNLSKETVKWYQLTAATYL

Results are given in words; binding and its absence hold for the method and conditions named. In cells and extracts the contact can be indirect. These calls come from enrichment with a bait or labelling near it, and not all partners need be listed.

Turning to PI3KC2α (from UniProt O00443 1-1686), the binding result is “binds”.

For the origin of these results see PMC8501101.
